We go through six molecules from article PMC9571070, “Three-Fluorophore FRET Enables the Analysis of Ternary Protein Association in Living Plant Cells” (Plants, 2022).

The chains behind the UniProt entries cited, without tags or fusion partners. Residues count along the entry.
UniProt O22476, residues 24-1196: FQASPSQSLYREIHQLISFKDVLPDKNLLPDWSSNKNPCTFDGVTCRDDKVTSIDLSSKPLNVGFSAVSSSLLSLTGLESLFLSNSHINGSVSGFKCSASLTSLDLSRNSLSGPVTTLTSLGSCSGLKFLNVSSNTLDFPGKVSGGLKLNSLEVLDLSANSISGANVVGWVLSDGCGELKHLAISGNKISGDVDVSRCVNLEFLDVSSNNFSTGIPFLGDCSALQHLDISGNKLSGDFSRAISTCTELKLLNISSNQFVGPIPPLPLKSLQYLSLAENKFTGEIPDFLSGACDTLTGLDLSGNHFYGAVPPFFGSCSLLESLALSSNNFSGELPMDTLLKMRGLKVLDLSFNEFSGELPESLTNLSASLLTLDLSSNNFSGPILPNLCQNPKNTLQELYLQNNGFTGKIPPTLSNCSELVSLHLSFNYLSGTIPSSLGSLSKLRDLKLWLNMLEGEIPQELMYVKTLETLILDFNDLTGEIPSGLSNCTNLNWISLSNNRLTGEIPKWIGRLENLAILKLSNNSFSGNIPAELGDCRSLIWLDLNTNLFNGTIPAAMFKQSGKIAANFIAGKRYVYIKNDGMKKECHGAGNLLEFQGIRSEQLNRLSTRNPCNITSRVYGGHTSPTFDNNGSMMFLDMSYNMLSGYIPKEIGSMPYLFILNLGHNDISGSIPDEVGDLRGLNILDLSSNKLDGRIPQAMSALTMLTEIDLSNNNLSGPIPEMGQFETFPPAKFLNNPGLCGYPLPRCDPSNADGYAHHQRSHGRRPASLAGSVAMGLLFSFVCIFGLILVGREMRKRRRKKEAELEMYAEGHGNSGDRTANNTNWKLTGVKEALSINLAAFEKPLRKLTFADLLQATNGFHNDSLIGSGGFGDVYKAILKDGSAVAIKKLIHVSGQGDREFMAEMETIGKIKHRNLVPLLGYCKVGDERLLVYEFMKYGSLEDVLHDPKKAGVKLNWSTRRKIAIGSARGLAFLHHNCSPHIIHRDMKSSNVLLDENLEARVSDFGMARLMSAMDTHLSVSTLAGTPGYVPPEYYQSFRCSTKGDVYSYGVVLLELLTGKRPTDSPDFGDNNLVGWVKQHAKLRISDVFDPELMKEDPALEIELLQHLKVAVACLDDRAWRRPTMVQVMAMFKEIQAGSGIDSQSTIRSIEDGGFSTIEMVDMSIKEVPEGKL
UniProt Q9FL28, residues 24-1173: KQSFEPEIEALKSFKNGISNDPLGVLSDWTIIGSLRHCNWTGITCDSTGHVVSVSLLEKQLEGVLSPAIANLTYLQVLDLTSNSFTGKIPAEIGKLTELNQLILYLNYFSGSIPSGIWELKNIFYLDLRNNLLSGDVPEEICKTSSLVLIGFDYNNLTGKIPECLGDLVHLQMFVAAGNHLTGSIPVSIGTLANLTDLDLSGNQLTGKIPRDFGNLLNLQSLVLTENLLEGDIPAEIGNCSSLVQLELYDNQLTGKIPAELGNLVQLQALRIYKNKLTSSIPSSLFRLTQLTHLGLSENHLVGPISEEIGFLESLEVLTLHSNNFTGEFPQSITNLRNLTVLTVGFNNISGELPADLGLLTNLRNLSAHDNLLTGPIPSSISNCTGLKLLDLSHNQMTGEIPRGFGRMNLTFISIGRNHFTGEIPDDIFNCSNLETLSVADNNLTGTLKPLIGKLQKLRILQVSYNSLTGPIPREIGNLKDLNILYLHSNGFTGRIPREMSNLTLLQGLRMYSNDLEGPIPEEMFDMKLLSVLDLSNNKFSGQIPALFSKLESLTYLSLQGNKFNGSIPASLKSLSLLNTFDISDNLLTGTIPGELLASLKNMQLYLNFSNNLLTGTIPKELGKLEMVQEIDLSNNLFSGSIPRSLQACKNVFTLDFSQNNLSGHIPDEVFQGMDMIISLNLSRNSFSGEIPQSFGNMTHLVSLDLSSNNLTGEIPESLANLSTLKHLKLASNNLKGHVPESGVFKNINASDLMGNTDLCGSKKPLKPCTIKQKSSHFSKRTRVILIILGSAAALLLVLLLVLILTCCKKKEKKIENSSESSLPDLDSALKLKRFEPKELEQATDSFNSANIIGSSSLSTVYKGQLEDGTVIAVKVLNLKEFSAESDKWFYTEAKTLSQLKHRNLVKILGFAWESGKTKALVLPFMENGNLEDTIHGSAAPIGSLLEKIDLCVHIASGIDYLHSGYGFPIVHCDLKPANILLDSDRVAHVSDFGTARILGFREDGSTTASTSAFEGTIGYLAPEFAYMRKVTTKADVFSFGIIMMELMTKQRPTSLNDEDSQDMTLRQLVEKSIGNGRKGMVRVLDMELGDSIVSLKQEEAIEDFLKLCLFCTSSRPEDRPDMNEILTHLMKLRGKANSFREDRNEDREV

No constants are given. Whether binding was seen depends on the method and setting. Binding seen in cells or lysates may run through a third protein. Some entries that bind do so weakly or less than the wild type. For part of these data: Sequences can lack the tags named with a protein.

Experiment [1] deals with T1, Receptor-Like Protein 44 fused to monomeric Turquoise 2 (RLP44-mTRQ2) (UniProt Q9M2Y3).
T1 sequence: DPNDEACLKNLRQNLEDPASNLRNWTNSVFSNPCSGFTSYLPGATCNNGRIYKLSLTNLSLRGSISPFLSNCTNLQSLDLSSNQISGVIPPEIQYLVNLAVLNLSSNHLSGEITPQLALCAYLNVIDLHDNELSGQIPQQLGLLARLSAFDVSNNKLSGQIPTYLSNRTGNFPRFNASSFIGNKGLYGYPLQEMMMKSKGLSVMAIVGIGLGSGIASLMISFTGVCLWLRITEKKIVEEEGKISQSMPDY
Put plainly: FRET or BRET; three-fluorophore intensity-based spectral FRET (excitation 458 nm), RLP44-mTRQ2 co-expressed with one mVEN and one mRFP fusion protein, plasma membrane of living N. benthamiana epidermal leaf cells.

Experiment [2] concerns the target T1, Receptor-Like Protein 44 fused to monomeric Turquoise 2 (RLP44-mTRQ2). Put plainly: FRET or BRET; three-fluorophore FRET-FLIM, fluorescence lifetime of the donor RLP44-mTRQ2 co-expressed with one mVEN and one mRFP fusion protein, living N. benthamiana epidermal leaf cells; also with 10 nM brassinolide (no alteration). A general note: In BRET a luciferase serves as donor, and the signal depends on an acceptor being close.

Experiment [3] has the same target. Put plainly: FRET or BRET; intensity-based spectral FRET (lambda-stacks, excitation 458 nm), two fusion proteins co-expressed, plasma membrane of living N. benthamiana epidermal leaf cells; donor RLP44-mTRQ2, acceptor mVEN or mRFP fusion; corrected for donor-to-acceptor ratios.
The target of experiment [4] is T2, BRI1 Associated Kinase 1 fused to monomeric Venus (BAK1-mVEN) (UniProt Q94F62).
T2 sequence: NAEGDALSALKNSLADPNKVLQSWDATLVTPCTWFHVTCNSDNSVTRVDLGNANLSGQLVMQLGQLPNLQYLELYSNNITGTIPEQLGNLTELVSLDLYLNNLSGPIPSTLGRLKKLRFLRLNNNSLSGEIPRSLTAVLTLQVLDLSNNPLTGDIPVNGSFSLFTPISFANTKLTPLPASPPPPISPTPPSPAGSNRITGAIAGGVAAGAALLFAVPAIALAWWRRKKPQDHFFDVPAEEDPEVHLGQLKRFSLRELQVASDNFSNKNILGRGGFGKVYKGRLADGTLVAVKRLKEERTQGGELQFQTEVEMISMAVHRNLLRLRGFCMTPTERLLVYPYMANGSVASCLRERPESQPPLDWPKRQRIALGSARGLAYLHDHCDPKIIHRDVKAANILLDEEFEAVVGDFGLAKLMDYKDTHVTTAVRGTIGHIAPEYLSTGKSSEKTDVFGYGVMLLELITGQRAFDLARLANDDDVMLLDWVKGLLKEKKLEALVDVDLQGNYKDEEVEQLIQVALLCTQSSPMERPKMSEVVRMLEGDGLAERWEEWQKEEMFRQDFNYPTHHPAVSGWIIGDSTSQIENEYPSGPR
Put plainly: FRET or BRET; three-fluorophore intensity-based spectral FRET (excitation 458 nm), RLP44-mTRQ2 co-expressed with one mVEN and one mRFP fusion protein, plasma membrane of living N. benthamiana epidermal leaf cells.

Experiment [5] deals with T1, Receptor-Like Protein 44 fused to monomeric Turquoise 2 (RLP44-mTRQ2). Put plainly: FRET or BRET; FRET-FLIM, fluorescence lifetime of the donor RLP44-mTRQ2 (440 nm pulsed laser, TCSPC), two fusion proteins co-expressed, plasma membrane of living N. benthamiana epidermal leaf cells.
The target of experiment [6] is Brassinosteroid Insensitive 1 fused to monomeric Venus (BRI1-mVEN) (UniProt O22476). Put plainly: FRET or BRET; three-fluorophore intensity-based spectral FRET (excitation 458 nm), RLP44-mTRQ2 co-expressed with one mVEN and one mRFP fusion protein, plasma membrane of living N. benthamiana epidermal leaf cells.
For experiment [7] the target is unchanged. In words: FRET or BRET; three-fluorophore FRET-FLIM, fluorescence lifetime of the donor RLP44-mTRQ2 co-expressed with one mVEN and one mRFP fusion protein, living N. benthamiana epidermal leaf cells; also with 10 nM brassinolide (no alteration).
The target in experiment [8] is T1, Receptor-Like Protein 44 fused to monomeric Turquoise 2 (RLP44-mTRQ2). In words: FRET or BRET; intensity-based spectral FRET (lambda-stacks, excitation 458 nm), two fusion proteins co-expressed, plasma membrane of living N. benthamiana epidermal leaf cells; donor RLP44-mTRQ2, acceptor mVEN or mRFP fusion; corrected for donor-to-acceptor ratios. The source holds these as a separate data set.

As for “Brassinosteroid Insensitive 1 fused to monomeric Venus (BRI1-mVEN) (from UniProt O22476 24-1196) (receptor)”, the binding entry in experiment [1], in experiment [2] and in experiment [3] was “binds” each time.

“Brassinosteroid Insensitive 1 fused to monomeric red fluorescence protein 1 (BRI1-mRFP) (from UniProt O22476 24-1196) (receptor)”: the binding result in experiment [4], in experiment [1] and in experiment [3] was “binds” in each case.

For the molecule “Flagellin Sensing 2 fused to monomeric Venus (FLS2-mVEN) (from UniProt Q9FL28 24-1173) (receptor)”, the binding entry in experiment [5] and in experiment [3] was “no binding” in each case.

“Flagellin Sensing 2 fused to monomeric red fluorescence protein 1 (FLS2-mRFP) (from UniProt Q9FL28 24-1173) (receptor)”: the binding entry in experiment [5], in experiment [6], in experiment [1], in experiment [7], in experiment [2] and in experiment [3] was “no binding” in each case.

B1: BRI1 Associated Kinase 1 fused to monomeric Venus (BAK1-mVEN) (receptor, UniProt Q94F62 26-615)
chain: NAEGDALSALKNSLADPNKVLQSWDATLVTPCTWFHVTCNSDNSVTRVDLGNANLSGQLVMQLGQLPNLQYLELYSNNITGTIPEQLGNLTELVSLDLYLNNLSGPIPSTLGRLKKLRFLRLNNNSLSGEIPRSLTAVLTLQVLDLSNNPLTGDIPVNGSFSLFTPISFANTKLTPLPASPPPPISPTPPSPAGSNRITGAIAGGVAAGAALLFAVPAIALAWWRRKKPQDHFFDVPAEEDPEVHLGQLKRFSLRELQVASDNFSNKNILGRGGFGKVYKGRLADGTLVAVKRLKEERTQGGELQFQTEVEMISMAVHRNLLRLRGFCMTPTERLLVYPYMANGSVASCLRERPESQPPLDWPKRQRIALGSARGLAYLHDHCDPKIIHRDVKAANILLDEEFEAVVGDFGLAKLMDYKDTHVTTAVRGTIGHIAPEYLSTGKSSEKTDVFGYGVMLLELITGQRAFDLARLANDDDVMLLDWVKGLLKEKKLEALVDVDLQGNYKDEEVEQLIQVALLCTQSSPMERPKMSEVVRMLEGDGLAERWEEWQKEEMFRQDFNYPTHHPAVSGWIIGDSTSQIENEYPSGPR
As for B1, the binding result in experiment [1] is reported as “binds”.

B2: BRI1 Associated Kinase 1 fused to monomeric red fluorescence protein 1 (BAK1-mRFP) (receptor, UniProt Q94F62 26-615, looked up)
chain: NAEGDALSALKNSLADPNKVLQSWDATLVTPCTWFHVTCNSDNSVTRVDLGNANLSGQLVMQLGQLPNLQYLELYSNNITGTIPEQLGNLTELVSLDLYLNNLSGPIPSTLGRLKKLRFLRLNNNSLSGEIPRSLTAVLTLQVLDLSNNPLTGDIPVNGSFSLFTPISFANTKLTPLPASPPPPISPTPPSPAGSNRITGAIAGGVAAGAALLFAVPAIALAWWRRKKPQDHFFDVPAEEDPEVHLGQLKRFSLRELQVASDNFSNKNILGRGGFGKVYKGRLADGTLVAVKRLKEERTQGGELQFQTEVEMISMAVHRNLLRLRGFCMTPTERLLVYPYMANGSVASCLRERPESQPPLDWPKRQRIALGSARGLAYLHDHCDPKIIHRDVKAANILLDEEFEAVVGDFGLAKLMDYKDTHVTTAVRGTIGHIAPEYLSTGKSSEKTDVFGYGVMLLELITGQRAFDLARLANDDDVMLLDWVKGLLKEKKLEALVDVDLQGNYKDEEVEQLIQVALLCTQSSPMERPKMSEVVRMLEGDGLAERWEEWQKEEMFRQDFNYPTHHPAVSGWIIGDSTSQIENEYPSGPR
notes: BRI1 Associated Kinase 1 (BAK1), co-receptor kinase; also called BAK1-RFP; source: N. benthamiana epidermal leaf cells, transiently transformed, in living cells; not shown: mRFP, C-terminal, kept
For the molecule B2, the binding entry in experiment [6], in experiment [1] and in experiment [8] was “binds” in each case.
